From the supplement of paper PMC12067093, “Discovery and optimisation of a covalent ligand for TRIM25 and its application to targeted protein ubiquitination” (Chemical Science, 2025)
The other results are listed elsewhere or left out.

Compound: CC1Cc2ccccc2N1C(=O)C1CCCN(C1)C(=O)CCl (mixture of isomers) [TRIM25 ligand 11 (diastereomer mixture)]
Test: probe-labelled cysteine peptide fold change vs DMSO (competition) (log2 fold change); higher = less target engagement (more negative = stronger competition)
Details: THP-1, incubation time: 4 h
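Note: competitive chemoproteomic profiling in live THP-1 cells with an iodoacetamide desthiobiotin (IA-DTB) probe, comparing probe-labelled peptide intensities in compound-treated cells against DMSO-treated controls.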

| Target | probe-labelled cysteine peptide fold change (10 µM) | probe-labelled cysteine peptide fold change (50 µM) |
| --- | --- | --- |
| EIF1AX_P47813_51_LEAMCFDGVKR (UniProt P47813) | -0.0826 | 0.0645 |
| EIF2AK4_Q9P2K8_1084_HGAVQLCTPLLLPR (UniProt Q9P2K8) | 0.0789 | 0.156 |
| EEF2_P13639_567_DLEEDHACIPIK (UniProt P13639) | 0.088 | -0.099 |
| EIF2B3_Q9NR50_206_FHTGLVDAHLYCLK (UniProt Q9NR50) | 0.115 | 0.223 |
| EFTUD2_Q15029_842_LMEPYYFVEVQAPADCVSAVYTVLAR (UniProt Q15029) | 0.434 | -0.0202 |
| EEF1A1_P68104_234_KDGNASGTTLLEALDCILPPTR (UniProt P68104) | -0.177 | -0.132 |
| EIF2S3_P41091_96_LDDPSCPRPECYR (UniProt P41091) | 0.0208 | -0.0476 |
| EIF3A_Q14152_58_YLELCVDLRK (UniProt Q14152) | -0.202 | -0.0665 |
| EDC3_Q96F86_272_EFCTDSGLVVPSISYELHKK (UniProt Q96F86) | -0.147 | -0.104 |
| EDEM1_Q92611_529_CGYATLHHVIDK (UniProt Q92611) | 0.0724 | 0.192 |
| EIF2S1_P05198_70_NECVVVIRVDK (UniProt P05198) | -0.282 | 0.00188 |
| EIF2D_P41214_271_TLQEQMDELLQQCFLHALK (UniProt P41214) | 0.014 | -0.0458 |
| EFTUD2_Q15029_525_VLGENYTLEDEEDSQICTVGR (UniProt Q15029) | 0.0278 | 0.109 |
| EEF1A1_P68104_411_PMCVESFSDYPPLGR (UniProt P68104) | 0.0668 | 0.0149 |
| EIF2AK4_Q9P2K8_285_CIGSDEQLGK (UniProt Q9P2K8) | 0.141 | 0.0778 |
| EIF2B4_Q9UI10_437_AHNVPVLVCCETYK (UniProt Q9UI10) | -0.0019 | 0.186 |
| EFL1_Q7Z2Z2_953_GESPLTDCYGPFSGQLIATMK (UniProt Q7Z2Z2) | -0.055 | -0.00995 |
| EIF2AK2_P19525_369_CLFIQMEFCDK (UniProt P19525) | -0.0113 | 0.000931 |
| EIF2S2_P20042_284_EYVTCHTCR (UniProt P20042) | 0.0405 | 0.105 |

Full records as entered above. Values in the order: probe-labelled cysteine peptide fold change (10 µM) | probe-labelled cysteine peptide fold change (50 µM)
EIF2B3_Q9NR50_206_FHTGLVDAHLYCLK (UniProt Q9NR50) is listed as 0.115 | 0.223
EIF2AK4_Q9P2K8_1084_HGAVQLCTPLLLPR (UniProt Q9P2K8) is listed as 0.0789 | 0.156
EIF1AX_P47813_51_LEAMCFDGVKR (UniProt P47813) is listed as -0.0826 | 0.0645

Continuation:

| Target | probe-labelled cysteine peptide fold change (10 µM) | probe-labelled cysteine peptide fold change (50 µM) |
| --- | --- | --- |
| EEF2_P13639_536_SDPMVQCIIEESGEHIIAGAGELHLEICLK (UniProt P13639) | 0.00077 | -0.00894 |
| ECI2_O75521_77_QATEGPCNMPKPGVFDLINK (UniProt O75521) | -0.19 | -0.218 |
| ECPAS_Q5VYK3_1420_SCAFAMGHLVR (UniProt Q5VYK3) | -0.0415 | 0.138 |
| EHMT1_Q9H9B1_1111_LLPEFNMAEPPLIFECNHACSCWR (UniProt Q9H9B1) | 0.206 | -0.44 |
| ECD_O95905_211_AHCFLPAGIVAVLK (UniProt O95905) | -0.168 | 0.187 |
| EFL1_Q7Z2Z2_124_ICDGCIIVVDAVEGVCPQTQAVLR (UniProt Q7Z2Z2) | -0.295 | 0.0324 |
| EHMT1_Q9H9B1_1105_LLPEFNMAEPPLIFECNHACSCWR (UniProt Q9H9B1) | -0.00285 | 0.0212 |
| ECHS1_P30084_213_ICPVETLVEEAIQCAEK (UniProt P30084) | -0.106 | -0.0881 |
| EHHADH_Q08426_559_RYCPIPDVLCELGR (UniProt Q08426) | -0.0567 | -0.0384 |
| EIF2S2_P20042_281+284_EYVTCHTCR (UniProt P20042) | -0.0193 | 0.0605 |
| ECPAS_Q5VYK3_1459_TSCALTIHAIGR (UniProt Q5VYK3) | -0.0778 | -0.0124 |
| EIF2S1_P05198_199_ADIEVACYGYEGIDAVK (UniProt P05198) | -0.011 | -0.087 |
| EIF1_P41567_94_NICQFLVEIGLAK (UniProt P41567) | -0.205 | 0.00204 |
| EGFL7_Q9UHF1_267+269_IDSLSEQISFLEEQLGSCSCKK (UniProt Q9UHF1) | 0.39 | 0.235 |
| EED_O75530_330_SCENAIVCWKPGK (UniProt O75530) | -0.0568 | -0.00525 |
| EFTUD2_Q15029_144+148_TCFVDCLIEQTHPEIR (UniProt Q15029) | -0.043 | -0.0748 |
| EHMT2_Q96KQ7_428_GFEELPLCSCR (UniProt Q96KQ7) | -0.0369 | -0.115 |
| EGFL7_Q9UHF1_269_IDSLSEQISFLEEQLGSCSCK (UniProt Q9UHF1) | -0.0599 | -0.0952 |
| EHHADH_Q08426_623_CLYSLINEAFR (UniProt Q08426) | 0.303 | -0.045 |
